For one molecule, binding results are on record in doi:10.1101/672576.

Sequences of proteins named here, by UniProt entry; tags and fusion partners are left off. A change or cut given only in a name is not applied to a line headed by its entry.
UniProt P30153: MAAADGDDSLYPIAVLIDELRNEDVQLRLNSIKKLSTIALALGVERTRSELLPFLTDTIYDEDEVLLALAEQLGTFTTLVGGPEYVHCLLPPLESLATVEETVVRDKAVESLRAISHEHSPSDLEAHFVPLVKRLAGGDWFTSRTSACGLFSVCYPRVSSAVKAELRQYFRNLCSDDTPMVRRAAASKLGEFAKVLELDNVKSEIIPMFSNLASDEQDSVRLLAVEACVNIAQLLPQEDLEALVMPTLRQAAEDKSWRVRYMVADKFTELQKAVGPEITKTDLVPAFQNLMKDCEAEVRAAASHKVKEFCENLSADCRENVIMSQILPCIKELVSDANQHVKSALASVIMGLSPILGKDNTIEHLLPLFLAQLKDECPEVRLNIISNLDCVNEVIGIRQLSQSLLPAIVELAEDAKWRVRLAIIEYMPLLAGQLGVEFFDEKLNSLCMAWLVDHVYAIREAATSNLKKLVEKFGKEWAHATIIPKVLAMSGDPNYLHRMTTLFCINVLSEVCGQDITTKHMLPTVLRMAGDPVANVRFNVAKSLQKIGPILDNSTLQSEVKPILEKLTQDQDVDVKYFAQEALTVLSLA

Read-outs that look alike come from different tables or passages of the source. Results are given in words; binding and its absence hold for the method and conditions named. Some entries that bind do so weakly or less than the wild type. Where a sequence is shown, tags or fusion partners need not be part of it.

Test [1] addresses GST-tagged PP2A core enzyme (Aα-Cα heterodimer) (UniProt P30153). The experiment in a line: pull-down.
The target is the same in test [2]. The experiment in a line: pull-down. The source holds these as a separate data set.

B1: PR70 subunit (purified, GST pull-down) (protein, UniProt Q9Y5P8 1-575)
chain: MPPGKVLQPVLKMKVDELFLYWLSEASTQRMLQDCLRRIKAPGRDQPTPGDGEQPGAWPTAPLAAPRPSGLEPPGTPGPGPALPLGAASSPRNAPHVRGTRRSAGTRVVQTRKEEPLPPATSQSIPTFYFPRGRPQDSVNVDAVISKIESTFARFPHERATMDDMGLVAKACGCPLYWKGPLFYGAGGERTGSVSVHKFVAMWRKILQNCHDDAAKFVHLLMSPGCNYLVQEDFVPFLQDVVNTHPGLSFLKEASEFHSRYITTVIQRIFYAVNRSWSGRITCAELRRSSFLQNVALLEEEADINQLTEFFSYEHFYVIYCKFWELDTDHDLLIDADDLARHNDHALSTKMIDRIFSGAVTRGRKVQKEGKISYADFVWFLISEEDKKTPTSIEYWFRCMDLDGDGALSMFELEYFYEEQCRRLDSMAIEALPFQDCLCQMLDLVKPRTEGKITLQDLKRCKLANVFFDTFFNIEKYLDHEQKEQISLLRDGDSGGPELSDWEKYAAEEYDILVAEETAGEPWEDGFEAELSPVEQKLSALRSPLAQRPFFEAPSPLGAVDLYEYACGDEDLEPL
Take B1: the binding entry in test [1] and in test [2] was “binds” in each case.
